Source: PubChem BioAssay AID504648 (National Center for Advancing Translational Sciences (NCATS), 2011)
Screen size: about 390,000 compounds; about 610 (0.16%) were called active. Inconclusive results, whose numbers are uncertain, are shown with a selection of clear calls. Calls come from the whole dose curve; as a rule, active = well fitted inhibition curve with a large enough effect; inconclusive = small, poorly fitted or top-dose-only effect, or effect the other way, or another doubt; inactive = no such curve, though single readings can be large or run the other way. A potency beside an inconclusive call is a rough fit, not a confirmed value.

assay: Nrf2 qHTS screen for inhibitors: counterscreen for cytotoxicity; conditions: A549 ARE-Fluc cells, CellTiter-Fluor viability, 18-24 h; series mostly up to 46 µM
Outline: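 Cytotoxicity counterscreen: CellTiter-Fluor fluorescence was measured in A549 ARE_Fluc cells after 18-24 h of compound exposure in a concentration series. The subsequent BugLite luminescent read reports ARE-luciferase activity.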
Potency is the fitted concentration of half-maximal effect.

| Structure (SMILES) | Potency |
| --- | --- |
| N#CC(C#N)=c1ccc2c(c1)NC1(CCCCC1)N=2 | inconclusive: 29.1 µM [falling, single point] |
| O=C(O)CCC(=O)Nc1ccc(OCC2CCCO2)cc1 (stereo not drawn) | inconclusive: 10.3 µM [activator, partial curve, poor fit] |
| Cc1cc2ccccn2c1C(=O)c1ccc(NN)c([N+](=O)[O-])c1 | inconclusive: 32.6 µM [falling, partial curve, poor fit] |
| Cn1c(-c2sc3ccccc3c2Cl)n[nH]c1=S | inactive |
| O=[N+]([O-])c1ccc(OCCOc2ccccc2/C=N/n2cnnc2)cc1 | inconclusive: 29.1 µM [activator, single point] |
| Cc1ncc(CO)c2c1Oc1nc(-c3ccccc3)nc(SCC(=O)Nc3cccc(O)c3)c1C2 | inconclusive: 29.1 µM [falling, partial curve, poor fit] |
| COc1ccc(-c2cc(C(=O)N3CC4(C)CC3CC(C)(C)C4)no2)cc1OC (stereo not drawn) | inconclusive: 5.17 µM [activator, full curve, poor fit] |
| S=C(NCC1CCCCC1)Nc1ccc(Oc2ccccc2)cc1 | inactive |
| O=C1/C(=C/Nc2ccc3c(c2)OCO3)CCc2ccccc21 | inconclusive: 23.1 µM [falling, partial curve, poor fit] |
| CC1=NNC(=O)C1CC(=O)N/N=C/c1cccs1 (stereo not drawn) | inconclusive: 32.6 µM [falling, partial curve, poor fit] |
| S=C(NCCN(C1CCCCC1)C1CCCC1)Nc1cccc(Cl)c1 | inconclusive: 29.1 µM [falling, single point] |
| O=C(CCn1c(=O)c2ccccc2n(Cc2cccc([N+](=O)[O-])c2)c1=O)N1CCc2ccccc2C1 | inactive |
| CCC12CN3CC(CC)(CN(C1)C3c1ccc(OCc3ccccc3)cc1)C2=O (stereo not drawn) | inactive |
| COc1ccccc1N(CC(N)=O)S(=O)(=O)c1ccc(C)cc1 | inconclusive: 6.51 µM [activator, single point] |
| CCOc1ccc(N2C(=O)/C(=C/c3ccc(C)o3)N(C)C2=S)cc1 | inconclusive: 2.59 µM [falling, partial curve, poor fit] |
| COc1cccc(N=Nc2c(=O)[nH]n3c(=O)cc(C)[nH]c23)c1 | inconclusive: 20.6 µM [falling, single point] |
| Cc1ccc(NS(=O)(=O)c2cccc(C(=O)N3CCCCCCC3)c2)cc1 | inconclusive: 20.6 µM [falling, partial curve, poor fit] |
| CCC(CO)Nc1nc(CN2CCCCC2)nc2scc(-c3ccccc3)c12 (stereo not drawn) | inconclusive: 25.9 µM [falling, partial curve, poor fit] |

Reformatted bar-delimited: two of the compounds above
Structure (SMILES) | Potency
Cc1ccc(NS(=O)(=O)c2cccc(C(=O)N3CCCCCCC3)c2)cc1 | inconclusive: 20.6 µM [falling, partial curve, poor fit]
CCC(CO)Nc1nc(CN2CCCCC2)nc2scc(-c3ccccc3)c12 (stereo not drawn) | inconclusive: 25.9 µM [falling, partial curve, poor fit]
